Source: PubChem BioAssay AID1347076 (National Center for Advancing Translational Sciences (NCATS), 2019)
The whole screen tested about 400,000 compounds, of which about 13,000 (3.2%) were called active. The shares of active, inactive and inconclusive entries below differ from those in the screen. Calls come from the whole dose curve; as a rule, active = well fitted cell-killing curve with a large enough effect; inconclusive = small, poorly fitted or top-dose-only effect, or effect the other way; inactive = flat fitted curve, though single readings scatter. Potencies of inconclusive entries are doubtful fits and often do not repeat.
Potency is the fitted concentration of half-maximal effect.

Assay: qHTS assay for MDR1-selective chemotherapeutics: Primary screen using the drug-selected MDR subline cells KB-V1; note: nearly all actives have a fitted effect of over 60% in size
Details: KB-V1 MDR cells viability, CellTiter-Glo, 72 h; series mostly up to 46.1 µM
Outline: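 Drug-selected KB-V1 cells, grown in DMEM lacking phenol red with 10% FBS, receive compound titrations; after three days at 37 degrees C, surviving cell ATP is quantified by CellTiter-Glo luminescence and responses normalized and curve-fitted.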
With `Cc1[nH]c2ccccc2c1CCN(Cc1cccnc1)C(=S)Nc1ccc(F)cc1` the Potency was “inactive”. For `O=C(O)c1cccc(S(=O)(=O)N(Cc2ccccc2)c2ccccc2Cl)c1`, the Potency was inconclusive: 14.6 µM [rising, partial curve, poor fit]. With `Cc1cc(C(=O)N2CCC2(C)C(=O)Nc2cccc3c2CCCC3)nn1C` (stereo not drawn) the Potency was “inactive”. In the case of `O=C(CSc1nc(-c2ccccc2)cn1-c1ccccc1)Nc1ccccc1`, the Potency is reported as inconclusive: 20.6 µM [cytotoxic, partial curve, poor fit]. For `CCCCCCCCN1C(=O)[C@H](CC(=O)N2CCN(C(=O)C3CC3)CC2)C[C@@]2(C(=O)OC)CC(C)(C)CC=C12`, the Potency was inconclusive: 25.9 µM [cytotoxic, partial curve, poor fit]. With `O=C(CSc1ccc(Br)cc1)NCC(c1cccs1)N1CCOCC1` (stereo not drawn) the Potency was inconclusive: 11.6 µM [cytotoxic, partial curve]. In the case of `CCCCCCSc1ccc([C@@H]2[C@@H]3C(=O)N(CC)C(=O)[C@@H]3[C@]3(C(=O)OC)CCCCN23)cc1OC`, the Potency is reported as inconclusive: 20.6 µM [cytotoxic, single point]. In the case of `Cc1ccc(NC(=S)NC(NC(=O)c2ccccc2)C(Cl)(Cl)Cl)c(C)c1` (stereo not drawn), the Potency is reported as active: 16.4 µM. With `O=C(/C=C/c1ccc(S(=O)(=O)N2CCOCC2)cc1)NCc1ccccc1Cl` the Potency was inconclusive: 10.3 µM [cytotoxic, partial curve]. For `Cc1ccc(NC(=O)CCC(=O)c2cccs2)cc1`, the Potency was “inactive”. In the case of `CCn1c(NCc2cccc(Cl)c2)nc2ccccc21`, the Potency is reported as “inactive”. For `CC(C)N(Cc1ccccc1)C(=O)C1CCCN(c2ncnc3c2nc2n3CCCCC2)C1` (stereo not drawn), the Potency was inconclusive: 29.1 µM [cytotoxic, single point]. For `COC(=O)c1c(NC(=O)CC2SC(N)=NC2=O)sc2c1CCC(C)C2` (stereo not drawn), the Potency was “inactive”. In the case of `COCCC(=O)N1CCC(Oc2ccc(C(=O)NCc3csc(C)n3)cc2)CC1`, the Potency is reported as inconclusive: 23.1 µM [rising, single point]. For `CN1C(=O)/C(=C2/C=Cc3ccccc3N2CCCS(=O)(=O)O)SC1=S`, the Potency was “inactive”. For `CN(C)Cc1cc2ccccc2c2c1COC2`, the Potency was “inactive”. In the case of `COCCCNC(=O)C(=O)N/N=C/c1cc2c(cc1Br)OCO2`, the Potency is reported as “inactive”. In the case of `Cc1cc(Cl)ccc1OCC(=O)Nc1ccncc1`, the Potency is reported as inconclusive: 29.1 µM [cytotoxic, single point]. With `O=C(N/N=C/c1cccnc1)c1ccccc1Cl` the Potency was inconclusive: 16.4 µM [cytotoxic, single point]. In the case of `O=C(O)c1cccc(Nc2nc(-c3cccnc3)nc3ccccc23)c1`, the Potency is reported as “inactive”. For `COCCCNc1cc(C)nc2ccccc12`, the Potency was “inactive”. In the case of `Cc1csc(-c2coc3cc(O)cc(C)c3c2=O)n1`, the Potency is reported as inconclusive: 20.6 µM [cytotoxic, single point]. With `O=C(NN=Cc1ccccc1O)NN=Cc1ccccc1O` the Potency was inconclusive: 20.6 µM [cytotoxic, single point]. For `CCn1c(C(=O)O)c(CC(=O)NC2CCCCCC2)c2ccccc21`, the Potency was inconclusive: 29.1 µM [rising, single point]. With `COc1ccc(CSc2nc3ccccc3[nH]2)cc1` the Potency was inconclusive: 25.9 µM [cytotoxic, single point]. In the case of `COC1=C(Nc2ccc(C)cc2)C(=O)c2ccccc2C1=O`, the Potency is reported as active: 18.4 µM. With `COc1ccc(C2/C(=C(/O)c3ccccc3)C(=O)C(=O)N2c2ccccn2)cc1` (stereo not drawn) the Potency was “inactive”. With `O=C(O)COc1ccccc1/C=N/NC(=O)CN1CCN(Cc2ccc(Cl)cc2)CC1` the Potency was inconclusive: 29.1 µM [rising, single point]. With `Cc1ccc2nc(NC(=O)c3cccs3)sc2c1` the Potency was inconclusive: 5.8 µM [cytotoxic, partial curve]. For `COc1ccc(Cn2nnc3c(C)n[nH]c(=O)c32)cc1`, the Potency was “inactive”. For `COCCN(C(=S)Nc1ccc(C)cc1C)C(C)c1cccs1` (stereo not drawn), the Potency was inconclusive: 11.6 µM [cytotoxic, partial curve]. For `CC(C)(C)OC(=O)C[C@@H]1C/C=C\C[C@H](CC(=O)N[C@@H](CO)Cc2ccccc2)C(=O)N[C@H](Cc2ccccc2)COC1=O`, the Potency was inconclusive: 16.4 µM [rising, partial curve]. For `Cc1cccc(N2CCN(c3ccc(C(=O)O)cc3NC(=O)c3ccccc3F)CC2C)c1` (stereo not drawn), the Potency was “inactive”. For `COCCCNC(=S)N(Cc1ccccc1)Cc1ccc(F)cc1`, the Potency was inconclusive: 20.6 µM [cytotoxic, single point]. With `Cc1c(CNC(=O)c2nn3c(c2Cl)NC(c2ccccc2)CC3C(F)(F)F)cnn1C` (stereo not drawn) the Potency was active: 20.6 µM. In the case of `O=C(CN1C(=O)c2cccc3cccc1c23)Nc1ccccc1C(=O)NCc1ccco1`, the Potency is reported as inconclusive: 4.61 µM [cytotoxic, partial curve]. For `O=C(Nc1ccc(O)cc1)c1cc2n(n1)C(C(F)(F)F)CC(c1ccco1)N2` (stereo not drawn), the Potency was inconclusive: 20.6 µM [cytotoxic, single point]. For `O=C(O)c1ccc(CNCc2ccc(Cl)cc2Cl)cc1`, the Potency was inconclusive: 29.1 µM [rising, single point]. With `C#CCOCCOCCOCCNc1nc(N2CCN(C(=O)CCCCCCCCCCNC(=O)[C@H](CO)n3cc(CCCSC)nn3)CC2)nc(N2CCN(C(=O)CCCCCCCCCCNC(=O)[C@H](CCCCN)n3cc(CCO)nn3)CC2)n1` the Potency was inconclusive: 18.4 µM [cytotoxic, single point]. In the case of `COc1ccc(CC(=O)Nc2cccc(-c3nnc(-c4ccccc4)o3)c2)cc1OC`, the Potency is reported as inconclusive: 13 µM [cytotoxic, partial curve, poor fit]. With `Cc1cccc(-c2nsc(SCC(=O)NCC3CCCO3)n2)c1` (stereo not drawn) the Potency was inconclusive: 18.4 µM [cytotoxic, single point]. In the case of `COC(=O)C1=C(C)NC2=C(C(=O)c3ccccc32)C1c1cccc(OC)c1` (stereo not drawn), the Potency is reported as “inactive”. For `CC(C)n1ncc2c(C(=O)Nc3ccc(S(N)(=O)=O)cc3)cc(C3CC3)nc21`, the Potency was inconclusive: 25.9 µM [rising, single point]. For `Cc1cccc(C)c1N1CCN(c2ccc3nnc(C(F)(F)F)n3n2)CC1`, the Potency was inconclusive: 29.1 µM [cytotoxic, single point]. For `Cc1cc(C)cc(NC(=O)CCN2CC(C)OC(C)C2)c1` (stereo not drawn), the Potency was inconclusive: 9.2 µM [cytotoxic, partial curve, poor fit]. With `CCOCc1cc(C2NC(=O)NC(C)=C2C(=O)OCC)ccc1OC` (stereo not drawn) the Potency was “inactive”. In the case of `CC(=O)N1N=C(c2ccc(C)cc2)CC1c1ccc2c(c1)OCO2` (stereo not drawn), the Potency is reported as inconclusive: 20.6 µM [cytotoxic, single point]. In the case of `c1ccc2c(c1)CCc1c(-c3ccncc3)n[nH]c1-2`, the Potency is reported as active: 14.6 µM. In the case of `CCOC(=O)c1cc2ccc(OC(=O)c3ccco3)cc2oc1=O`, the Potency is reported as “inactive”. For `O=C(Cc1ccc(S(=O)(=O)N2CCCCC2)s1)Nc1ccc(F)cc1F`, the Potency was inconclusive: 16.4 µM [cytotoxic, partial curve]. With `CCCN(CCC)S(=O)(=O)c1ccc(C(=O)Nc2nnc(-c3cccc(OC)c3)o2)cc1` the Potency was inconclusive: 11.6 µM [cytotoxic, partial curve, poor fit]. In the case of `Cc1nc2ccccc2n1CCc1nc2c3ccccc3nc(SCC(=O)Nc3ccc(C(C)C)cc3)n2n1`, the Potency is reported as inconclusive: 23.1 µM [cytotoxic, partial curve, poor fit]. With `O=C(COC(=O)c1cncc(Br)c1)NCc1ccc(Cl)cc1` the Potency was inconclusive: 29.1 µM [rising, single point]. In the case of `O=C(NC1CCS(=O)(=O)C1)/C(=C\c1ccco1)NC(=O)c1ccccc1` (stereo not drawn), the Potency is reported as inconclusive: 2.06 µM [rising, partial curve, poor fit]. For `Cc1cccc(C(=O)c2c(N)sc3c2CCCC3)c1`, the Potency was inconclusive: 16.4 µM [cytotoxic, single point]. With `O=C(Nc1nnc(SCc2ccc(F)cc2)s1)c1ccccn1` the Potency was inconclusive: 1.46 µM [cytotoxic, full curve]. With `CC1CC(C(F)F)n2nc(C(=O)Nc3sc4c(c3C#N)CCC(C(C)(C)C)C4)nc2N1` (stereo not drawn) the Potency was inconclusive: 29.1 µM [cytotoxic, single point]. In the case of `CCCOc1ccc(C(=O)C(CN2CCCC2)c2ccccc2)cc1` (stereo not drawn), the Potency is reported as inconclusive: 32.6 µM [cytotoxic, single point]. For `Cc1ccc(NC(=O)Cc2ccc(NC(=O)N3CCCCc4ccccc43)cc2)cc1`, the Potency was inconclusive: 29.1 µM [rising, single point]. For `Cc1nn(Cc2ccccc2)c(C)c1C(=O)OCC(=O)c1cc(C)n(C2CC2)c1C`, the Potency was inconclusive: 4.11 µM [cytotoxic, partial curve]. With `Cc1cc(O)c(S(=O)(=O)c2ccccc2)c(C)c1NS(=O)(=O)c1ccccc1` the Potency was inconclusive: 16.4 µM [cytotoxic, single point]. For `COc1ccc2c3n(nc2c1)CCN=C3c1cc(Cl)c(N)c(Cl)c1`, the Potency was inconclusive: 20.6 µM [cytotoxic, single point]. In the case of `COCCCNC(=S)N/N=C/c1ccc(O)cc1O`, the Potency is reported as “inactive”. In the case of `CCN(CC)C(=O)CSc1nc2ncccc2[nH]1`, the Potency is reported as inconclusive: 23.1 µM [cytotoxic, partial curve, poor fit]. For `COc1ccc(-c2csc(N(Cc3ccco3)C(=O)c3cccs3)n2)cc1`, the Potency was inconclusive: 18.4 µM [cytotoxic, partial curve]. For `O=C(Nc1cccc(S(=O)(=O)c2cccc(NC(=O)c3ccco3)c2)c1)c1ccco1`, the Potency was inconclusive: 18.4 µM [cytotoxic, single point]. For `COc1ccc(NC(=S)N2CCC3CC2c2c(Cl)cccc23)c(OC)c1` (stereo not drawn), the Potency was “inactive”. With `Cc1cc(Cl)ccc1NC(=O)CN1C(=O)C(=O)c2ccccc21` the Potency was “inactive”.
